This is a selection; strong and weak results do not stand in their true shares. At the low end of the ranking the order means little.
Key:
Assay in all cases: DAPPL (digital affinity profiling via proximity ligation, sequencing)
Conditions in all cases: 10 mM Tris-HCl pH 7.5, 50 mM NaCl, 1 mM DTT, 4% glycerol, room temperature, 30 min; GST-TFs on glutathione beads, 16-mer random dsDNA library, 0.1% …; high values mean tight binding; double strand, one strand shown; scale: fold enrichment (6-mer frequency, TF over GST control)
ELK1 = target: T1, ELK1 (UniProt P19419)
T1 sequence: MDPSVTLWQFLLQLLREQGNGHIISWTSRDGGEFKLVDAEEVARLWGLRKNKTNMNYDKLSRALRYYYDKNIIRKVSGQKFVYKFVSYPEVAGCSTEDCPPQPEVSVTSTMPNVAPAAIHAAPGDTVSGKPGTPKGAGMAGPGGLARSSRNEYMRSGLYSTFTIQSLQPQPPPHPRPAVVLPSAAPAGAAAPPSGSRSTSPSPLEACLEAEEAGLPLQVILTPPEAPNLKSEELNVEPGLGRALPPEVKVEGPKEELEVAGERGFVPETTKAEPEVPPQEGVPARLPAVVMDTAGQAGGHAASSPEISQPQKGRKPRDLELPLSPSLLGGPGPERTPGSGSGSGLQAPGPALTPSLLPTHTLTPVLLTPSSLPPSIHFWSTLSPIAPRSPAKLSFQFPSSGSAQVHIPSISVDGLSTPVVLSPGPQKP

ELK3 = target: T2, ELK3 (UniProt P41970)
T2 sequence: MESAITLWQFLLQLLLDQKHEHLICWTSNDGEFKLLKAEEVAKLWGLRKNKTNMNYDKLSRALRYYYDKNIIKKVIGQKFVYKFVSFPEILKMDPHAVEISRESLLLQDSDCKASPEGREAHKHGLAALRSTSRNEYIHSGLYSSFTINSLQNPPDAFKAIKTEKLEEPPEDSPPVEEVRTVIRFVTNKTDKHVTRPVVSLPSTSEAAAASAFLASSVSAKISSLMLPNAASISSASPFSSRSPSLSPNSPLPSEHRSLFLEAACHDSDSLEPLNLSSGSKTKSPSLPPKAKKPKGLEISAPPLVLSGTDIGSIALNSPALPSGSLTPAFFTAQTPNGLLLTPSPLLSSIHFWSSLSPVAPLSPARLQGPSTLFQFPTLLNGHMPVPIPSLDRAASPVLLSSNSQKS

SPIC = target: T3, SPIC (UniProt Q8N5J4)
T3 sequence: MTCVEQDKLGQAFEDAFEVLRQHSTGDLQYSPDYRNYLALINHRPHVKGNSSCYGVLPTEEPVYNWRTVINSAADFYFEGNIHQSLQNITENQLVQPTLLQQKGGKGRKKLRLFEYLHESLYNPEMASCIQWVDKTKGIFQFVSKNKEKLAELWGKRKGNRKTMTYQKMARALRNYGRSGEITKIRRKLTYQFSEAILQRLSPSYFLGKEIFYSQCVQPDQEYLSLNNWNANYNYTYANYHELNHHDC

ETS2 = target: T4, ETS2 (UniProt P15036)
T4 sequence: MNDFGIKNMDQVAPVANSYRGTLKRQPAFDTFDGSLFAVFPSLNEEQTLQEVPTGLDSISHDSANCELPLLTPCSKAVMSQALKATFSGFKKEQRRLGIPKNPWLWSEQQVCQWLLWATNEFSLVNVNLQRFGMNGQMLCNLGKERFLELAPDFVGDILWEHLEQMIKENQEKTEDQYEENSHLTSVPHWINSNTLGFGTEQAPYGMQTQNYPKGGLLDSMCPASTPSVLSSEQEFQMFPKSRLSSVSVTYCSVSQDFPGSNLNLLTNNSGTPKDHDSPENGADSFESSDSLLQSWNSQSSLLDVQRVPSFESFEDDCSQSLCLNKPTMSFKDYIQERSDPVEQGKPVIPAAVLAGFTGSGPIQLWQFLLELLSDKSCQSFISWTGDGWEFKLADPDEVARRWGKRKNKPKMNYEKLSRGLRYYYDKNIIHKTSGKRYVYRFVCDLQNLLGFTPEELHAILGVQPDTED

ETV3 = target: T5, ETV3 (UniProt P41162-2)
T5 sequence: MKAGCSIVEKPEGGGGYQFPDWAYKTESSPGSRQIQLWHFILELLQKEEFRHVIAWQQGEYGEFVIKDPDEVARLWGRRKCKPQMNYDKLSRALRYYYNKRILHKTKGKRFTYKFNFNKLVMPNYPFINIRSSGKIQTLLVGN

| Sequence | binding signal (ELK1) | binding signal (ELK3) | binding signal (SPIC) | binding signal (ETS2) | binding signal (ETV3) |
| --- | --- | --- | --- | --- | --- |
| GAGAAA | 0.742 | 0.784 | 0.691 | 0.785 | 0.662 |
| GCCAAC | 0.879 | 0.804 | 0.958 | 0.947 | 0.947 |
| GACGTT | 0.924 | 0.857 | 0.9 | 0.884 | 0.92 |
| TGTCGC | 0.999 | 0.969 | 0.907 | 0.925 | 0.912 |
| TGTTGG | 0.93 | 0.891 | 0.862 | 0.842 | 0.932 |
| ACGTCA | 0.957 | 0.941 | 0.946 | 0.976 | 0.823 |
| GCAAAG | 0.919 | 0.964 | 0.722 | 0.878 | 0.938 |
| GATAAA | 0.968 | 0.96 | 0.963 | 0.95 | 0.942 |
| GTCTAG | 0.817 | 0.879 | 0.855 | 0.849 | 0.898 |
| CGAAGA | 0.825 | 0.776 | 0.795 | 0.824 | 0.733 |
| GGTTAA | 0.897 | 0.91 | 0.897 | 0.906 | 0.911 |
| AGATCA | 0.889 | 0.941 | 0.771 | 0.828 | 0.848 |
| GGCTGC | 0.995 | 0.744 | 0.964 | 0.975 | 0.817 |
| GAAAGT | 0.833 | 0.905 | 0.753 | 0.896 | 0.881 |
| CCAAAG | 0.997 | 0.915 | 0.95 | 0.836 | 0.89 |
| CGAGGT | 0.879 | 0.929 | 0.833 | 0.974 | 0.975 |
| GCATTA | 0.811 | 0.862 | 0.777 | 0.868 | 0.872 |
| CGTTGG | 0.853 | 0.862 | 0.889 | 0.87 | 0.813 |
| CCAGAT | 0.806 | 0.941 | 0.838 | 0.907 | 0.871 |
| GGAATG | 0.887 | 0.788 | 0.962 | 0.917 | 0.816 |

Whole records as entered above.
CGAGGT as listed: binding signal (ELK1): 0.879; binding signal (ELK3): 0.929; binding signal (SPIC): 0.833; binding signal (ETS2): 0.974; binding signal (ETV3): 0.975
GAAAGT as listed: binding signal (ELK1): 0.833; binding signal (ELK3): 0.905; binding signal (SPIC): 0.753; binding signal (ETS2): 0.896; binding signal (ETV3): 0.881
AGATCA as listed: binding signal (ELK1): 0.889; binding signal (ELK3): 0.941; binding signal (SPIC): 0.771; binding signal (ETS2): 0.828; binding signal (ETV3): 0.848

Next part

| Sequence | binding signal (ELK1) | binding signal (ELK3) | binding signal (SPIC) | binding signal (ETS2) | binding signal (ETV3) |
| --- | --- | --- | --- | --- | --- |
| TCGAGG | 0.79 | 0.806 | 0.802 | 0.831 | 0.718 |
| TACGGG | 0.892 | 0.863 | 0.993 | 0.891 | 0.907 |
| CGGCAA | 0.881 | 0.938 | 0.817 | 0.915 | 0.953 |
| TGAAGG | 0.844 | 0.869 | 0.949 | 0.91 | 0.937 |
| GACCCC | 0.951 | 0.906 | 0.841 | 0.893 | 0.926 |
| GCAAGC | 0.905 | 0.922 | 0.729 | 0.934 | 0.903 |
| GCGACG | 0.862 | 0.9 | 0.953 | 0.899 | 0.955 |
| ACAGTT | 0.887 | 0.945 | 0.871 | 0.809 | 0.943 |
| ACGCGA | 0.849 | 0.935 | 0.873 | 0.818 | 0.877 |
| GTGTAA | 0.845 | 0.944 | 0.863 | 0.969 | 0.901 |
| ACCAAG | 0.912 | 0.914 | 0.897 | 0.946 | 0.879 |
| TGTTAG | 0.981 | 0.907 | 0.869 | 0.985 | 0.964 |
| GCCATT | 0.983 | 0.866 | 0.998 | 0.952 | 0.979 |
| ATAGGT | 1.01 | 0.985 | 1.01 | 0.987 | 1.06 |
| GCCAGA | 0.634 | 0.727 | 0.582 | 0.625 | 0.651 |
| GTATCG | 0.93 | 0.841 | 0.871 | 0.928 | 0.891 |
| ATAGTG | 0.935 | 0.827 | 0.894 | 0.905 | 0.905 |
| TCGTCG | 0.921 | 0.896 | 0.959 | 0.918 | 0.993 |
| GTGGTC | 0.852 | 0.957 | 0.815 | 0.919 | 0.862 |
| TAAGAG | 0.901 | 0.951 | 0.815 | 0.834 | 0.884 |

| Sequence | binding signal (ELK1) | binding signal (ELK3) | binding signal (SPIC) | binding signal (ETS2) | binding signal (ETV3) |
| --- | --- | --- | --- | --- | --- |
| TTAGTC | 0.725 | 0.808 | 0.869 | 0.793 | 0.789 |
| CGCGTA | 0.859 | 0.967 | 0.966 | 0.986 | 0.97 |
| AGGGTT | 0.951 | 0.849 | 0.99 | 0.959 | 0.986 |
| AGAAGA | 0.898 | 0.86 | 0.98 | 0.913 | 0.905 |
| CTAGAC | 0.989 | 0.929 | 0.95 | 0.942 | 0.999 |
| GGCCTG | 0.877 | 0.996 | 0.974 | 0.898 | 0.915 |
| GATCTG | 0.922 | 0.881 | 0.95 | 0.984 | 0.919 |
| CATCAT | 1.06 | 0.962 | 0.984 | 1.08 | 1.08 |
| ACGAAG | 0.946 | 0.936 | 0.99 | 0.914 | 0.915 |
| TCGTTG | 0.867 | 0.862 | 0.797 | 0.934 | 0.921 |
| GGATCA | 0.811 | 0.876 | 0.825 | 0.789 | 0.739 |
| TAGAGA | 0.814 | 0.837 | 0.854 | 0.789 | 0.814 |
| GCCGTC | 1.03 | 0.919 | 0.976 | 0.958 | 0.906 |
| GCGCAC | 0.925 | 0.939 | 0.861 | 0.911 | 0.838 |
| GCGTCA | 0.99 | 0.962 | 0.987 | 0.978 | 0.912 |
| ATCAGA | 0.907 | 0.938 | 0.891 | 0.907 | 0.987 |
| CCAAGT | 0.882 | 0.89 | 0.974 | 0.88 | 0.969 |
| TCGCGT | 0.841 | 0.997 | 0.83 | 0.968 | 0.996 |
| AGTTGC | 0.994 | 1.03 | 0.894 | 0.957 | 0.986 |
| AGAGAA | 0.821 | 0.863 | 0.793 | 0.833 | 0.818 |
